Each structure is given as a SMILES string. The list does not hold the whole screen: it covers a few groups of compounds. Not every dose and run of a compound is shown. T/C is the treated group as % of the vehicle group. Some T/C values are marked as having no survivor count here; that says nothing about deaths at the dose. Schedules are NCI's codes, taken here to give the interval after Q, in days (D) or hours (H), and the number of doses after X. Some schedule codes hold Z or #, which are not explained here. Some doses were run more than once; the values are given in rising order.

This assay relates to Swiss mice, Sarcoma 180 sc, mean tumor weight T/C. Description: NCI In Vivo Anticancer Drug Screen. Data for tumor model Sarcoma 180 (subcutaneous) in Swiss mice. Particulars: T/C endpoint: mean tumor weight, evaluation day not shown, higher T/C = larger tumour. The method, then:
The antitumor activity of compounds was measured in mice bearing transplantable tumors. Survival or tumor size were measured and the results are expressed as the measurement made in the treated group (T) divided by the measurement made in the vehicle treated control group (C). The tumor model used in this assay is Sarcoma 180 (subcutaneous) in Swiss mice

The mark [1] stands for this setting: dose: 50.0 mg/kg/injection, schedule: Q#A X014 (ip), vehicle: carboxymethylcellulose (CMC).

As to `CCCCOc1ccc(N(CCCl)CCCl)cc1`, the T/C is 60 % of control [survivor count not shown] (dose: 7.5 mg/kg/injection, schedule: Q#A X014 (ip), vehicle: methylcellulose (MC)); 78 % of control [survivor count not shown] (dose: 10.0 mg/kg/injection, schedule: Q#A X014 (ip), vehicle: carboxymethylcellulose (CMC)); 19 % of control [survivor count not shown] (dose: 11.0 mg/kg/injection, schedule: Q#A X014 (ip), vehicle: methylcellulose (MC)); 30 % of control [survivor count not shown] (dose: 14.7 mg/kg/injection, schedule: Q01DX007 (ip), vehicle: carboxymethylcellulose (CMC)); 113 % of control [survivor count not shown] (dose: 14.75 mg/kg/injection, schedule: Q#A X014 (ip), vehicle: methylcellulose (MC)); 14 % of control [survivor count not shown] (dose: 16.5 mg/kg/injection, schedule: Q#A X014 (ip), vehicle: methylcellulose (MC)). The T/C is, setting by setting: (dose: 22.0 mg/kg/injection, schedule: Q01DX007 (ip), vehicle: carboxymethylcellulose (CMC)) 20 % of control [survivor count not shown]; (dose: 22.0 mg/kg/injection, schedule: Q#A X014 (ip), vehicle: carboxymethylcellulose (CMC)) 75 % of control [survivor count not shown]; (dose: 24.75 mg/kg/injection, schedule: Q#A X014 (ip), vehicle: methylcellulose (MC)) 5 % of control [survivor count not shown]; (dose: 25.0 mg/kg/injection, schedule: Q#A X014 (ip), vehicle: methylcellulose (MC)) 11 % of control [survivor count not shown]; (dose: 33.0 mg/kg/injection, schedule: Q01DX007 (ip), vehicle: carboxymethylcellulose (CMC)) 8 % of control [survivor count not shown]; (dose: 33.0 mg/kg/injection, schedule: Q#A X014 (ip), vehicle: carboxymethylcellulose (CMC)) 72 % of control [survivor count not shown]. The T/C is 8 [survivor count not shown] and 79 % of control [survivor count not shown] (dose: 36.85 mg/kg/injection, schedule: Q#A X014 (ip), vehicle: methylcellulose (MC)); 3 % of control [survivor count not shown] (dose: 49.6 mg/kg/injection, schedule: Q01DX007 (ip), vehicle: carboxymethylcellulose (CMC)); 87 % of control [survivor count not shown] under setting [1]; 4 [survivor count not shown], 17 [survivor count not shown], 31 [survivor count not shown], 84 % of control [survivor count not shown] (dose: 55.0 mg/kg/injection, schedule: Q#A X014 (ip), vehicle: methylcellulose (MC)); 10 % of control [survivor count not shown] (dose: 74.0 mg/kg/injection, schedule: Q01DX007 (ip), vehicle: saline); 98 % of control [survivor count not shown] (dose: 75.0 mg/kg/injection, schedule: Q#A X014 (ip), vehicle: carboxymethylcellulose (CMC)). Besides, the T/C reads like this: (dose: 84.0 mg/kg/injection, schedule: Q#A X014 (ip), vehicle: methylcellulose (MC)) 11 [survivor count not shown] and 55 % of control [survivor count not shown]; (dose: 110.0 mg/kg/injection, schedule: Q01DX007 (ip), vehicle: saline) 15 % of control [survivor count not shown].

Regarding `ClCCNCCCl`, the T/C runs as follows: (dose: 6.25 mg/kg/injection, schedule: Q#A X014 (ip), vehicle: carboxymethylcellulose (CMC)) 121 % of control [survivor count not shown]; (dose: 12.5 mg/kg/injection, schedule: Q#A X014 (ip), vehicle: carboxymethylcellulose (CMC)) 91 % of control [survivor count not shown]; (dose: 25.0 mg/kg/injection, schedule: Q#A X014 (ip), vehicle: carboxymethylcellulose (CMC)) 264 % of control [survivor count not shown]; under setting [1], 24 % of control [survivor count not shown].

For the compound `NC1CCCCC1.NP(=O)(O)N(CCCl)CCCl`, the T/C by setting is: (dose: 8.0 mg/kg/injection, schedule: Q01DX007 (ip), vehicle: saline) 53 % of control [survivor count not shown]; (dose: 16.0 mg/kg/injection, schedule: Q01DX007 (ip), vehicle: saline) 83 % of control [survivor count not shown]; (dose: 32.0 mg/kg/injection, schedule: Q01DX007 (ip), vehicle: saline) 43 % of control [survivor count not shown]; (dose: 64.0 mg/kg/injection, schedule: Q01DX007 (ip), vehicle: saline) 14 % of control [survivor count not shown].

Values taken from PubChem BioAssay AID342 (DTP/NCI, 2004).
